In PubChem BioAssay AID463205 (Broad Institute, 2010):
Out of some 2,400 compounds screened, about 20 (0.8%) were called active.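 Rule for the calls: active = AC50 no more than ten times the highest tested concentration, or full inhibition at every dose giving a flat fit (cut at about 30 µM in these data); inconclusive = flat fit with activity between 30% and 70%, or poor-quality invalid fit; inactive = AC50 more than ten times the top tested dose.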 This is one part of the list.

Assay: inhibitors of ADP-Glo detection reagents, dose response, artefact control for GSK-3a inhibitor project, biochemical, luminescence, cell-free, homogeneous (AID 463205);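 note: kinase-free counter-screen against the ADP-Glo detection reagents only; potency is for inhibitors that reduce the luminescence signal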
Conditions: 5 uM ADP

AC50, inactive:
Cc1nnc(NC(=O)Oc2ccccc2)s1 > 30 µM
O=C(O)CCCNc1ccc([N+](=O)[O-])c(NCCCC(=O)O)n1 > 30 µM
c1cc2[nH]snc2c2nc(C3CC3)nc12 > 30 µM
CCOc1cccc(-c2c(C(=O)N/N=C/c3sccc3C)nnn2-c2nonc2N)c1 > 30 µM
Cc1ccc(C)c(/C=N/Nc2ccccn2)c1 > 30 µM
COC(=O)c1cn(C(=O)c2ccccc2F)nc1N > 30 µM
CCNc1c(C(=O)O)ccc2c1C(=O)c1ccccc1C2=O > 30 µM
Cc1cc(N2CCN(c3ccccc3)CC2)n2cc(-c3ccccc3)nc2n1 > 30 µM
O=C(CSCCO)Nc1ccc([N+](=O)[O-])cc1 > 30 µM
Nc1c(C(=O)Nc2ccc3c(c2)OCCO3)nnn1Cc1ccccc1Cl > 30 µM
CCOC(=O)c1cc(C)sc1NC(=O)CCC(=O)O > 30 µM
CCOC(=O)c1c(NC(=O)Cc2cccs2)sc2c1CCCC2 > 30 µM
CCCCOC(=O)C1=C(C)Nc2ncnn2C1c1ccc(OC)c(OC)c1OC (stereo not drawn) > 30 µM
Cc1nc(NCCc2ccccc2)c(C#N)c(C)c1[N+](=O)[O-] > 30 µM
C/C(=N\NC(=O)c1nnn(-c2nonc2N)c1-c1cccs1)c1ccc(C)cc1 > 30 µM
COc1ccccc1C(=O)Nc1ccncc1 > 30 µM
CCOC(=O)N1CCC(N2CCN(S(=O)(=O)c3ccc([N+](=O)[O-])cc3)CC2)CC1 > 30 µM
CCOc1cc(/C=C2\SC(N)=NC2=O)ccc1O > 30 µM
C/C(=N\NC(=O)c1nnn(-c2nonc2N)c1CN(C)c1ccccc1)c1ccc(O)cc1 > 30 µM
CCNc1cc(N2CCCC2)ccc1[N+](=O)[O-] > 30 µM
CC1(C)Oc2ccc3ccc(=O)oc3c2-c2cnoc21 > 30 µM
COc1ccccc1NC(=O)Nc1ccccc1Br > 30 µM
O=c1[nH]c(CN2CCN(CCO)CC2)nc2ccccc12 > 30 µM
C/C(=N\NC(=O)c1nnn(-c2nonc2N)c1-c1cccs1)c1ccncc1 > 30 µM
Cc1c(C(=O)N/N=C/c2cccnc2)nnn1-c1nonc1N > 30 µM
O=C(c1ccc(Cn2cnnn2)cc1)N1CCCC(Nc2ccc(F)c(F)c2)C1 (stereo not drawn) > 30 µM
NC(=O)c1ccc(N=C2C(=O)Nc3ccc([N+](=O)[O-])cc32)cc1 > 30 µM
COc1cccc(-c2c(C(=O)N/N=C(\C)c3cccs3)nnn2-c2nonc2N)c1 > 30 µM
O=C(/C(=N/N=C/c1ccc(O)c(O)c1)c1ccccc1)c1ccccc1 > 30 µM
COc1ccc(-c2cc(C(F)(F)F)nc(SCC(=O)NCc3cccs3)n2)cc1OC > 30 µM
COc1ccc(-c2noc(CSc3nc(N)cc(=O)[nH]3)n2)cc1 > 30 µM
COc1ccc(-c2cc(C(=O)N3CCN(c4ccccc4)CC3)no2)cc1OC > 30 µM
Clc1nccnc1N/N=C/c1ccc(Br)cc1 > 30 µM
CCOc1cc(/C=C2\SC(N3CCCCC3)=NC2=O)ccc1O > 30 µM
CCOC(=O)c1nc(NCc2ccccc2F)c2ccccc2n1 > 30 µM
Cn1c(SCc2cnc(-c3ccccc3)s2)nnc1C1COc2ccccc2O1 (stereo not drawn) > 30 µM
O=C(N/N=C/c1ccc(O)c(O)c1)C1CC1 > 30 µM
COc1ccccc1Nc1ccc(S(=O)(=O)N2CCCCC2)cc1[N+](=O)[O-] > 30 µM
CCc1c(C)c(C#N)c2nc3ccccc3n2c1NC > 30 µM
CCCC(=O)Nc1nc2ccc(OCC)cc2s1 > 30 µM
Cc1nc(C)c(C(=O)Nc2ncc([N+](=O)[O-])s2)o1 > 30 µM
N#C/C(=C/Nc1ccccc1)c1ccsc1 > 30 µM
N#Cc1c(-c2ccc(F)cc2)c2c([nH]c1=O)-c1ccccc1OC2 > 30 µM
CCOc1ccc(S(=O)(=O)Nc2cccc(C(=O)NCCCn3ccnc3)c2)cc1 > 30 µM
O=C1c2cnc3nc(SCc4ccc(Cl)cc4)nn3c2CC2c3ccccc3CCN12 (stereo not drawn) > 30 µM
O=C1N=C(C=c2ccc(=Cc3[nH]c(=O)[nH]c3O)cc2)C(=O)N1 > 30 µM
O=C(CCCN1C(=O)C2CCCCN2C1=O)N1CCN(c2ccc([N+](=O)[O-])cc2)CC1 (stereo not drawn) > 30 µM
CCOC(=O)c1[nH]c2c(c1-c1ccccc1)C(=O)CC(c1ccccc1)C2 (stereo not drawn) > 30 µM
c1cncc(-c2nc3ccccc3[nH]2)c1 > 30 µM
FC(F)(F)COc1ccc(-c2nnc(SCc3c(Cl)cccc3Cl)o2)cn1 > 30 µM
COc1cc(C2C(C#N)=C(N)Oc3n[nH]c(-c4cccnc4)c32)ccc1OCC(N)=O (stereo not drawn) > 30 µM
O=C(NCCO)c1ccccc1O > 30 µM
CCOc1ccc(-c2c(C(=O)N/N=C(\C)c3cccnc3)nnn2-c2nonc2N)cc1 > 30 µM
CN(C)Cc1c(C(=O)N/N=C/C2CC=CCC2)nnn1-c1nonc1N (stereo not drawn) > 30 µM
COC(=O)Nc1nnc(COc2ccccc2)s1 > 30 µM
Nc1nonc1-n1nnc(C(=O)N/N=C/c2cccs2)c1CSc1ccccc1 > 30 µM
COc1cc(/C=N/c2oc(C)c(C)c2C#N)cc(Br)c1O > 30 µM
COc1ccccc1OC(C)C(=O)N1CCC(Cc2ccccc2)CC1 (stereo not drawn) > 30 µM
CCOC(=O)Cc1csc(NC(=O)C2CCCN(S(=O)(=O)c3cnc[nH]3)C2)n1 (stereo not drawn) > 30 µM
COC(=O)[C@H]1[C@H](CCc2ccccc2)NC(=O)N(Cc2ccccc2)[C@@H]1C > 30 µM
CCCC(=O)Nc1nn(CC)c2nc3ccc(C)cc3cc12 > 30 µM
O=C(O)CN1C(=O)C2C3CC(C2C1=O)C1C(c2ccccc2)c2sc(=O)[nH]c2SC31 (stereo not drawn) > 30 µM
Cc1cc(N2CCN(c3ccccc3)CC2)n2nnnc2n1 > 30 µM
Cc1ccccc1-n1c2nc(=O)n(C)c(=O)c-2cc2ccccc21 > 30 µM
CCn1c2ccccc2c2nc3ccccc3nc21 > 30 µM
CC(=O)Nc1cccc(-c2csc(NCc3ccccc3)n2)c1 > 30 µM
Cc1ccc(N=C2NC(=O)/C(=C\c3ccco3)S2)cc1 > 30 µM
Cc1ccc(CSc2ccc3nnc(-c4cccnc4)n3n2)cc1 > 30 µM
COc1cc(/C=N/NC(=O)c2cccc(C(=O)N/N=C/c3ccc(O)c(OC)c3)n2)ccc1O > 30 µM
COc1ccc(-c2noc(CSc3nc(N)c(-c4ccccc4)c(=O)[nH]3)n2)cc1 > 30 µM
COc1ccc(/C=N/NC(=O)c2nnn(-c3nonc3N)c2-c2cccs2)cc1OC > 30 µM
Cc1ccc(-c2nc3ncccn3c2Nc2ccc3c(c2)OCCO3)cc1 > 30 µM
O=C1CCCC2=C1C(c1cccc(O)c1)c1c(ccc3ncccc13)N2 (stereo not drawn) > 30 µM
O=C(Nc1ccccc1-c1nnc(SCc2ccc(Cl)cc2)o1)c1ccccc1 > 30 µM
NC(=O)c1cccc(S(=O)(=O)N2CC(c3ccccc3)CC2=O)c1 (stereo not drawn) > 30 µM
Cc1nc2c(ccc3c2ccc2nc(C)sc23)s1 > 30 µM
N#C/C(=N\Nc1ccccc1)C(N)=S > 30 µM
COc1ccc(N2CCOCC2)c(NC(=O)c2ccc(Br)o2)c1 > 30 µM
CCOC(=O)c1cnc2c(Cl)c(Cl)ccc2c1N1CCN(C)CC1 > 30 µM
COc1cc(/C=N/NC(=O)CSCc2ccc([N+](=O)[O-])cc2)cc(OC)c1OC > 30 µM
O=C1NC(=Nc2ccccc2Cl)S/C1=C\c1cc([N+](=O)[O-])ccc1O > 30 µM
CC1(C)Cc2c(sc3nn[nH]c(=O)c23)CO1 > 30 µM
O=C(c1ccc(Cl)cc1)c1cnc(Nc2ccccc2)s1 > 30 µM
O=C1NC(=Nc2cccc(O)c2)S/C1=C\c1cccc([N+](=O)[O-])c1 > 30 µM
COCCCNc1c2c3c(cccc3[nH]c1=O)C(=O)c1ccccc1-2 > 30 µM
COc1cccc(C2C(C(=O)OC(C)C)=C(C)Nc3ncnn32)c1 (stereo not drawn) > 30 µM
COc1ccc(-c2noc(CSc3nc(-c4ccccc4)cc(=O)[nH]3)n2)cc1 > 30 µM
CC(C)(C)OC(=O)N1CCC(NC(=O)c2[nH]cnc2C(=O)Nc2ccon2)CC1 > 30 µM
O=C(Nc1ccccc1-c1nnc(SCc2ccc(Cl)cc2Cl)o1)c1ccccc1 > 30 µM
CCOC(=O)C(CC)Sc1ccc2nnc(-c3cccnc3)n2n1 (stereo not drawn) > 30 µM
COC(=O)C1=C(C)Nc2[nH]c(=S)[nH]c(=O)c2C1c1ccc(O)cc1 (stereo not drawn) > 30 µM
Cc1c(C(=O)N/N=C/c2ccc(O)c(Br)c2)sc(N)c1C#N > 30 µM
CCN1CCN(c2nc(N)c([N+](=O)[O-])c(Nc3ccc(C)cc3)n2)CC1 > 30 µM

Reprinted at random: 5 compounds from above, in no set order.
AC50, inactive:
O=C(c1ccc(Cn2cnnn2)cc1)N1CCCC(Nc2ccc(F)c(F)c2)C1 (stereo not drawn) > 30 µM
FC(F)(F)COc1ccc(-c2nnc(SCc3c(Cl)cccc3Cl)o2)cn1 > 30 µM
Cc1cc(N2CCN(c3ccccc3)CC2)n2cc(-c3ccccc3)nc2n1 > 30 µM
Cc1ccc(-c2nc3ncccn3c2Nc2ccc3c(c2)OCCO3)cc1 > 30 µM
Cc1c(C(=O)N/N=C/c2cccnc2)nnn1-c1nonc1N > 30 µM
